# Reference: US8114862B2, “TGR5 modulators and methods of use thereof” (Intercept Pharmaceuticals, Inc., priority 2008, dated 2012)
# Test system: HepG2 cells
# Assay: cells
# Settings: Homo sapiens, HepG2, 4 h, read-out: APOPTOSIS Caspase-3 activation EC50
smiles,measurement,value
CN[C@@H]1C[C@H]2O[C@@](C)([C@@H]1OC)n1c3ccccc3c3c4c(c5c6ccccc6n2c5c31)C(=O)NC4 [Staurosporine],EC50,3000 nM
